For some assays here: Where a protein sequence is shown, tags need not be part of it. Construct, isoform or probe ends are uncertain for at least one entry.

Holding throughout (assay): pull-down
The target in one data set is T1, NELF-E (Drosophila) (UniProt P92204).
T1 sequence (looked up, limits assumed): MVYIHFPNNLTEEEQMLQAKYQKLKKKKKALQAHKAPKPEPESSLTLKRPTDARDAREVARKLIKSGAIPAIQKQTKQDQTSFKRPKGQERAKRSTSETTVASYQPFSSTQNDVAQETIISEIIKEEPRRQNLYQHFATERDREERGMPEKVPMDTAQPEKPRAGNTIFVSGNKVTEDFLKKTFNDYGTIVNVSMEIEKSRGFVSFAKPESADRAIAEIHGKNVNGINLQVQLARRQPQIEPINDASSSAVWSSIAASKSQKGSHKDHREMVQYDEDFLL
Particulars: purified recombinant protein.

A further data set has as its target T2, UBLCP1 (UniProt Q8WVY7).
T2 sequence (looked up, limits assumed): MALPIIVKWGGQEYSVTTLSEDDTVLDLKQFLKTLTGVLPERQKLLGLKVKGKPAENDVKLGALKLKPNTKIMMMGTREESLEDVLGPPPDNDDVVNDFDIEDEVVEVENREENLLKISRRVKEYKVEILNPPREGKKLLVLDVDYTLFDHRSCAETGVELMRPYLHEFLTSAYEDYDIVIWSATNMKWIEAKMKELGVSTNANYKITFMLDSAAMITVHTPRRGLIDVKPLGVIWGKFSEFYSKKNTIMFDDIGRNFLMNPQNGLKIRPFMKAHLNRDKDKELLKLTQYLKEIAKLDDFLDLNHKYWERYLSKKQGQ
Particulars: purified recombinant protein.

Data set [1] deals with T3, hHSF1 (heat shock factor 1) (UniProt Q00613).
T3 sequence (looked up, limits assumed): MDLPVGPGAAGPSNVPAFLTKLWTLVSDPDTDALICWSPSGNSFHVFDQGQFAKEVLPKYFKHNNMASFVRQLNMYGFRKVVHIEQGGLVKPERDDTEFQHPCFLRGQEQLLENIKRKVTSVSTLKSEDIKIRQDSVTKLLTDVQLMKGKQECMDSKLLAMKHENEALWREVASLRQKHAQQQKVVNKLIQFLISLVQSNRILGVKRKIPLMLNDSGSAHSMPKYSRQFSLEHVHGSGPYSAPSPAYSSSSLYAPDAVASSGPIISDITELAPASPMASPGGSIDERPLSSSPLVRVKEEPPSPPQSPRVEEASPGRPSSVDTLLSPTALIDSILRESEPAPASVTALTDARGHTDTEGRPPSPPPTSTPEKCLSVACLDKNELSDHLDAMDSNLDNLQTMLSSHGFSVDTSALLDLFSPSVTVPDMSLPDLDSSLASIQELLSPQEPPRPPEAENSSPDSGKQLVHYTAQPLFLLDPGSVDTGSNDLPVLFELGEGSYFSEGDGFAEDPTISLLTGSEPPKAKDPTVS
The conditions noted are these: purified recombinant protein, protein details: N-terminal GST, immobilised on glutathione-agarose.

A further data set concerns the target GFP (UniProt P42212). Particulars: purified recombinant protein.
[2] abbreviates: average over all non-GFP targets, counted as no binding.
Setting [3] is: average over all non-hHSF1 targets, counted as no binding.
Setting [4] is: average over all non-NELF-E targets, counted as no binding.
Setting [5] is: average over Ni-NTA-containing columns, attributed to Ni-NTA affinity.
Where [6] appears, read: average over non-Ni-NTA columns, background binding.
[7] abbreviates: average over Ni-NTA-containing columns, attributed to resin/device background.

Turning to “AGCUUCUGGACUGCGAUGGGAGCACGAAACGUCGUGGCGCAAUUGGGUGGGGAAAGUCCUUAAAAGAGGGCCACCACAGAAGCU [GFPapt (AP3-1)]”, the binding signal (fold enrichment over N70 library) (with NELF-E (Drosophila) (setting [2]); in the data set with UBLCP1 (setting [2]); in data set [1] (setting [2])) was 0.6 throughout.
With “GGGAAUGGAUCCACAUCUACGAAUUCAAUCAAGUCCCCAGACUCAGCAACACUGGACAGCGAUAUGCAGAUAACCAAGACCAAUUCACUCCAGUUCACUGCAGACUUGACGAAGCUU [HSFapt (hHSF2-R5-2)]”, the binding signal (fold enrichment over N70 library) with GFP (setting [3]), with NELF-E (Drosophila) (setting [3]) and with UBLCP1 (setting [3]) was 2 in each case.
Consider “GGGAAUGGAUCCACAUCUACGAAUUCCCAACGACUGCCGAGCGAGAUUACGCUUGAGCGCCCCACUGAGGAUGCCCACGGGCGAUUGGGGCACGGCUUCACUGCAGACUUGACGAAGCUU [NELFapt (Napt1)]”, for which the binding signal (fold enrichment over N70 library) (with GFP (setting [4]); in the data set with UBLCP1 (setting [4]); in data set [1] (setting [4])) was 1.6 in each case.
As for “GGGAAUGGAUCCACAUCUACGAAUUCCGAAGCUCGUGACGGUACCUCCUAAAAUGUCCAUGGGGAAGGGAGGGAAUGGGAAGGACAAUCGGACACCGUUCACUGCAGACUUGACGAAGCUU [BBS2]”, the binding signal (fold enrichment over N70 library) with GFP (average over Ni-NTA-containing columns, attributed to Ni-NTA affinity, blank Ni-NTA almost 1000-fold) was 311; in the data set with NELF-E (Drosophila) (setting [5]) it was 311; with UBLCP1 (setting [5]), 311; in data set [1] (setting [6]), 13.
Take “GGGAAUGGAUCCACAUCUACGAAUUCCGCAGGGCUAGCCGCAUGCUCAGGCCUGGCGGGUAGGGAGUUAGGGUAGGGAGACCAGGAGAGCUGGCUUCACUGCAGACUUGACGAAGCUU [BBS1]”: the binding signal (fold enrichment over N70 library) with GFP (setting [7]) amounted to 5.1; in the data set with NELF-E (Drosophila) (setting [7]), 5.1; in the data set with UBLCP1 (setting [7]), 5.1; in data set [1] (setting [6]), 1.7.

For the origin of these results see patent US20150166987.
